Reference: the supplement of paper PMC12823440, “Inhibitors supercharge kinase turnover through native proteolytic circuits” (Nature, 2025)
Structures can show the parent of a compound that is named as a salt. This is one part of the list. The calls rarely recur for the same compound in another form.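 Kinases, fused to nanoluciferase, were expressed in K562 cells; luminescence was measured every 4 h from 2 to 18 h as percent of control (DMSO = 100%, positive control = 0%). A time point is decreased if signal falls significantly (2 sigma). Hits were called by the authors by a rule that is not shown; the count of time points alone does not decide it.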

Protein sequences, listed by entry. Tags and fused reporters are not part of them. Lines headed by an entry give the natural chain unless they say otherwise; changes in a name come on top.
UniProt P06241, whole entry, looked up: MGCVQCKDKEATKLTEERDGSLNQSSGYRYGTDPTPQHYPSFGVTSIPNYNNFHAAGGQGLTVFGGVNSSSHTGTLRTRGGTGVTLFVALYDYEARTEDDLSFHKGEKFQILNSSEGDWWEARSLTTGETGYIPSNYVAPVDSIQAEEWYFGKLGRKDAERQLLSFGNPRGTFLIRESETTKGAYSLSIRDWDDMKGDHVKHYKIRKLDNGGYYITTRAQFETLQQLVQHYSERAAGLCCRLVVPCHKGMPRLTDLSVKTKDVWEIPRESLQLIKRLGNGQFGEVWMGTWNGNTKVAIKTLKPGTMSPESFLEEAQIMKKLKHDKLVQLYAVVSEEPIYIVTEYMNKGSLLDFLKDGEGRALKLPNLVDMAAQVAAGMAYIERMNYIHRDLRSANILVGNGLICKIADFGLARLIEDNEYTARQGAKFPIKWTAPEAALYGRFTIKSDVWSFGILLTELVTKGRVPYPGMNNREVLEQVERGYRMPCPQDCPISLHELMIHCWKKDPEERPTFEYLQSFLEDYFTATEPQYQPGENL
UniProt P49840: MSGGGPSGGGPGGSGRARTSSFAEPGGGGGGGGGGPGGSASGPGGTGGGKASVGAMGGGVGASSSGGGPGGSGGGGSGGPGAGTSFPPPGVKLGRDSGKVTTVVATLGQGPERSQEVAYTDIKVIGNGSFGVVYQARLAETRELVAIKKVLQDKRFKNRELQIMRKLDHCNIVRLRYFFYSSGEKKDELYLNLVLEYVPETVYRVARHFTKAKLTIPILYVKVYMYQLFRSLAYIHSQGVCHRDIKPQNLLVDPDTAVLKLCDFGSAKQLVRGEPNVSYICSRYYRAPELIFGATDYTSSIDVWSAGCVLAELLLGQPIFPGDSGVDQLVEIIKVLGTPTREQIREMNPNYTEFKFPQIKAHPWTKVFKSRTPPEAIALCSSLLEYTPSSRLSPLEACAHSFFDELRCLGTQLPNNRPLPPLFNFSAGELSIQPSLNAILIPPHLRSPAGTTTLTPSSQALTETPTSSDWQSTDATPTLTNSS
UniProt P14616: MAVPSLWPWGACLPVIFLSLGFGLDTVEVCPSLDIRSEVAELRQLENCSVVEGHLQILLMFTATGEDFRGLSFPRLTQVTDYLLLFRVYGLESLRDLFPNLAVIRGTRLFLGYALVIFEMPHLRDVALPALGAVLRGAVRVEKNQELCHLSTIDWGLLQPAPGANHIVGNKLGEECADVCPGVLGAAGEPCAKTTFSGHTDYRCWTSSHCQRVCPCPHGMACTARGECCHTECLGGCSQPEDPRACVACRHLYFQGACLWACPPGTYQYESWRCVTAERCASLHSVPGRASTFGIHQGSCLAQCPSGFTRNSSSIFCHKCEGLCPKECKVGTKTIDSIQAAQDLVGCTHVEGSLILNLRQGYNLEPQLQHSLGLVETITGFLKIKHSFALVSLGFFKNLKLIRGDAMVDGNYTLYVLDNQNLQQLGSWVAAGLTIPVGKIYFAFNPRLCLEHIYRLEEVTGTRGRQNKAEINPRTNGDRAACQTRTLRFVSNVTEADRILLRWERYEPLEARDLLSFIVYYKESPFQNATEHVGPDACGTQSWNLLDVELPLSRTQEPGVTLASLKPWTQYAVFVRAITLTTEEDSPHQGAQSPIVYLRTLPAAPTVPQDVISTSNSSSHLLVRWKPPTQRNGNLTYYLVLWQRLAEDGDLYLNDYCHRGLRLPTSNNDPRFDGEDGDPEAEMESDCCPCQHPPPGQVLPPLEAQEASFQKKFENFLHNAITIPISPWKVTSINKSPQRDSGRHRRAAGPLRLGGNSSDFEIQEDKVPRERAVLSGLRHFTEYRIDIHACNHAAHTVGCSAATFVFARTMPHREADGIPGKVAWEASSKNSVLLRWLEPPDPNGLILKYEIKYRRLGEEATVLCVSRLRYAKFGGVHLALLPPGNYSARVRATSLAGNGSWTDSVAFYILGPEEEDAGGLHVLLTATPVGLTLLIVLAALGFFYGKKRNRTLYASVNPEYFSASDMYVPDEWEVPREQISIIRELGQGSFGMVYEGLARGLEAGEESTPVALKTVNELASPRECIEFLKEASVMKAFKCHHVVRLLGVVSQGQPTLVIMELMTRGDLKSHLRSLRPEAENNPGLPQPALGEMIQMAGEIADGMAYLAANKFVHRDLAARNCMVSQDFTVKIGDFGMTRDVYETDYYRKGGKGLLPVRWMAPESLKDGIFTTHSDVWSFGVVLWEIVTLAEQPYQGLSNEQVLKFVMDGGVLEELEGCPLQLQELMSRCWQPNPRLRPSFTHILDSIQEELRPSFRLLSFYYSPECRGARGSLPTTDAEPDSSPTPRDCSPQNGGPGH
UniProt Q9Y616: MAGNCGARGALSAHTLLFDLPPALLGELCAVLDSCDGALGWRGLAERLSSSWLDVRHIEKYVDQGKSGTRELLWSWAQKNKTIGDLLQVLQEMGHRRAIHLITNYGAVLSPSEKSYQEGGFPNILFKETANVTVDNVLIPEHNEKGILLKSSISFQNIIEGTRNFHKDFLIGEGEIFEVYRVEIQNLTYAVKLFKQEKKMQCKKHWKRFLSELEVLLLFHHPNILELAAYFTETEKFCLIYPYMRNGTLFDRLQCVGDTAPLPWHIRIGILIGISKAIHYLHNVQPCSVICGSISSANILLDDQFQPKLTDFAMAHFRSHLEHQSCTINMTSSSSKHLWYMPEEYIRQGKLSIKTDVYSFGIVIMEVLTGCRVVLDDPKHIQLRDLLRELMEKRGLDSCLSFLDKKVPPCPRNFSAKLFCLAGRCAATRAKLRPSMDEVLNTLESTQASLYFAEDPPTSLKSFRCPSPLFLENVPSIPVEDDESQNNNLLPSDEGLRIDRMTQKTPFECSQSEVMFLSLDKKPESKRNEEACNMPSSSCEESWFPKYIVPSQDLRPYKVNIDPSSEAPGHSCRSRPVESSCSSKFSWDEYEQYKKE
UniProt P23458: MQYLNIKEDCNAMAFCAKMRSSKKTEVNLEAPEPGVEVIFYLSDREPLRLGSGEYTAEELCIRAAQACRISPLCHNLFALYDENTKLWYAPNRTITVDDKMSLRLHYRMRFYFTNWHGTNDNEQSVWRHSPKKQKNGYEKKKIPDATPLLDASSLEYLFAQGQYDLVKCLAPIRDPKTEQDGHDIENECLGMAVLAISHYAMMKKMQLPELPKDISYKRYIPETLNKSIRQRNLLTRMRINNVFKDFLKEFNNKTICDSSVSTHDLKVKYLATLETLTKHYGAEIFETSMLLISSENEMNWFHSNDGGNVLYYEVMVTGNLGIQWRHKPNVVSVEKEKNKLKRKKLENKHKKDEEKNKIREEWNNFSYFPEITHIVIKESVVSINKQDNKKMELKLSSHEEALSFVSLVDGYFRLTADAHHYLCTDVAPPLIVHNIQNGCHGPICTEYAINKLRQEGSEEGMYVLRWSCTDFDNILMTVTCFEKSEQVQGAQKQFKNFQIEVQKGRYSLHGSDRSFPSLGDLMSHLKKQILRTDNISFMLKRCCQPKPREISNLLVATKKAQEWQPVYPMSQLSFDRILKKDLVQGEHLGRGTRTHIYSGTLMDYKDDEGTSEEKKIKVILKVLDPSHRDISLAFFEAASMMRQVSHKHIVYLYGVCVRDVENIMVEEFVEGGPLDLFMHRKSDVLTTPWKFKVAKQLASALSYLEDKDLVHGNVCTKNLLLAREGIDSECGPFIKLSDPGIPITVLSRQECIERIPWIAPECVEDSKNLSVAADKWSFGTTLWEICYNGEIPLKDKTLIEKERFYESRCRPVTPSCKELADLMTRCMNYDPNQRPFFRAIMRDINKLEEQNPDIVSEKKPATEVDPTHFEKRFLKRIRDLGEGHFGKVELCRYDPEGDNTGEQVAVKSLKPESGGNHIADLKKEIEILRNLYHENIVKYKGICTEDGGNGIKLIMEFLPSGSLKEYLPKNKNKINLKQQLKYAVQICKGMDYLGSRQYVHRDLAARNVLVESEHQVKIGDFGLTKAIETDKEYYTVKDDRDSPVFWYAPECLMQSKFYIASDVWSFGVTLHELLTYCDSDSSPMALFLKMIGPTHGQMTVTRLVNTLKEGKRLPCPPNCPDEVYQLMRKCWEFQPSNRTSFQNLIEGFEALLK
UniProt P06239: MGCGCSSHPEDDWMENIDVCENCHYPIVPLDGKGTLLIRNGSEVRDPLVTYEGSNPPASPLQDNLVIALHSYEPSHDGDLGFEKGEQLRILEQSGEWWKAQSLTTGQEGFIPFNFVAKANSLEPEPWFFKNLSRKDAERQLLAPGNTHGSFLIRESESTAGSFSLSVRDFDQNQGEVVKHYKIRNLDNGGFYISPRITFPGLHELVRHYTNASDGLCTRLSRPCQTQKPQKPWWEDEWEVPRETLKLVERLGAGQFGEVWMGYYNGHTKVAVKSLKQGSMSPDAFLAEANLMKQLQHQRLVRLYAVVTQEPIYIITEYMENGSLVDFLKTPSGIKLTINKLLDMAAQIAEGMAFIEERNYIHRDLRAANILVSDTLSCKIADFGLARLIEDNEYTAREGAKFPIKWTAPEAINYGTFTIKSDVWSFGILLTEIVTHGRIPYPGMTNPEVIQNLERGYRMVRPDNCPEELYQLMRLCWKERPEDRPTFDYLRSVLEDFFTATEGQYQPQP
UniProt P53667: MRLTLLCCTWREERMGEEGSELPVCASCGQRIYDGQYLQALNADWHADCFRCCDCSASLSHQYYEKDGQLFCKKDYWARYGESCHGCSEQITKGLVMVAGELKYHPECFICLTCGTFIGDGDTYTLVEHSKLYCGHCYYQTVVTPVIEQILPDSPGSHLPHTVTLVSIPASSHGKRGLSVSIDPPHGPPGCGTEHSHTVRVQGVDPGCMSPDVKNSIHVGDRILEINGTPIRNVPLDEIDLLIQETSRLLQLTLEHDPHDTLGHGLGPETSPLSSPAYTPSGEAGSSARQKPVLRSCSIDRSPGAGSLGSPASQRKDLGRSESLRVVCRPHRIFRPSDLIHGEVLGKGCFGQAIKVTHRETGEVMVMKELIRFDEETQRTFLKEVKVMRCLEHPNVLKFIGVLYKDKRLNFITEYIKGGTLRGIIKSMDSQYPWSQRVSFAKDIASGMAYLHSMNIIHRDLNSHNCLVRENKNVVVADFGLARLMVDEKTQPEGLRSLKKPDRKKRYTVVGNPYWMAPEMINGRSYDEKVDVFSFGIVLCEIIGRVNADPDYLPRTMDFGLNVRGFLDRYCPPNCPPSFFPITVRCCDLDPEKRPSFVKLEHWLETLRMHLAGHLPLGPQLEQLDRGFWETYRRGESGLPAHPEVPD
UniProt P53671: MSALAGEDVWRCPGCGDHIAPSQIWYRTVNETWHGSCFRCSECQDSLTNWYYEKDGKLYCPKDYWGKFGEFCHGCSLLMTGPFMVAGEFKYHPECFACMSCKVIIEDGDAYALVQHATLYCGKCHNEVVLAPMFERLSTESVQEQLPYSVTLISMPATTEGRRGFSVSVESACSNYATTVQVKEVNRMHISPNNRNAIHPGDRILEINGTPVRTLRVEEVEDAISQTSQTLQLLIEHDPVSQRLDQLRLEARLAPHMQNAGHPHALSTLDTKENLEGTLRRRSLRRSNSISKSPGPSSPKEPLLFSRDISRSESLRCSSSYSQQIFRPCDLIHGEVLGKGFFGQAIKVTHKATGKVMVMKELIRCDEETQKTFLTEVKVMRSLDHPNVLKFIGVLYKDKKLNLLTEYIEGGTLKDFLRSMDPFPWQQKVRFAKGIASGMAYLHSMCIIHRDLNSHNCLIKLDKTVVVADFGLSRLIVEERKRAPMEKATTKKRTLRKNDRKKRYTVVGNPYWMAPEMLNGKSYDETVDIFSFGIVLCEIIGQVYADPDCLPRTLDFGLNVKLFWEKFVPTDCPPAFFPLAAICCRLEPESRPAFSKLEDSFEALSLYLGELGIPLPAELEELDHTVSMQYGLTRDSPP

Assays:
Experiment in all cases: number of time points (of 5) at which kinase-Nluc abundance scored as decreased, DMSO-normalised (count); higher = more persistent destabilization
Conditions in all cases: K562; 2-18 h
FLT3 = FLT3 (UniProt P36888)
FYN = FYN (UniProt P06241)
GSK3A = GSK3A (UniProt P49840)
HER2 = HER2 (UniProt P04626)
INSRR = INSRR (UniProt P14616)
IRAK3 = IRAK3 (UniProt Q9Y616)
JAK1 = JAK1 (UniProt P23458)
LCK = LCK (UniProt P06239)
LIMK1 = LIMK1 (UniProt P53667)
LIMK2 = LIMK2 (UniProt P53671)

Measured: number of time points

Cc1cc(C(C)Nc2ccccc2)c2nc(N3CCOCC3)cc(=O)n2c1 (stereo not given) (10 µM)
0: FLT3 | FYN | GSK3A | HER2 | INSRR | IRAK3 | JAK1 | LCK | LIMK1 | LIMK2

COC(=O)N[C@@H](C)CNc1nccc(-c2cn(C(C)C)nc2-c2cc(Cl)cc(NS(C)(=O)=O)c2F)n1 [Encorafenib] (10 µM)
0: FLT3 | FYN | GSK3A | HER2 | INSRR | IRAK3 | JAK1 | LCK | LIMK1 | LIMK2

COC1(C(=O)N[C@@H](C)c2ccc(-n3cc(F)cn3)nc2)CCC(c2nc(C)cc(Nc3cc(C)[nH]n3)n2)CC1 (stereo partly drawn) [trans-Pralsetinib] (2.5 µM)
0: FLT3 | FYN | GSK3A | HER2 | INSRR | IRAK3 | JAK1 | LCK | LIMK1 | LIMK2

C[C@@H]1CCc2ncc(F)cc2[C@H]2CCCN2c2ccn3ncc(c3n2)C(=O)N1 [Selitrectinib] (10 µM)
0: FLT3 | FYN | GSK3A | HER2 | INSRR | IRAK3 | JAK1 | LCK | LIMK1 | LIMK2

O=C(NOCCO)c1ccc2cncn2c1Nc1ccc(I)cc1F (10 µM)
0: FLT3 | FYN | GSK3A | HER2 | IRAK3 | JAK1 | LCK | LIMK2
2: INSRR
1: LIMK1

Cc1ccc(-c2nn(C(C)(C)CNC(=O)c3ccncc3)c3ncnc(N)c23)cc1 (2.5 µM)
0: FLT3 | FYN | GSK3A | HER2 | INSRR | IRAK3 | JAK1 | LCK | LIMK1 | LIMK2

N=C(N)NC(=N)NCCc1ccccc1 [Phenformin (hydrochloride)] (10 µM)
0: FLT3 | FYN | GSK3A | HER2 | INSRR | IRAK3 | JAK1 | LCK | LIMK1 | LIMK2

Cc1nc(NC(=O)NCCc2nnn(CCF)n2)sc1-c1ccc(S(C)(=O)=O)c(F)c1 (10 µM)
0: FLT3 | FYN | GSK3A | HER2 | INSRR | IRAK3 | JAK1 | LCK | LIMK1 | LIMK2

O=C(O)c1ccccc1Nc1cccc(C(F)(F)F)c1 [Flufenamic acid] (10 µM)
0: FLT3 | FYN | GSK3A | HER2 | INSRR | IRAK3 | JAK1 | LCK | LIMK1 | LIMK2

CC[C@H](Nc1ncnc2[nH]cnc12)c1oc2ccccc2c(=O)c1-c1cccc(F)c1 [Tenalisib] (10 µM)
0: FLT3 | FYN | GSK3A | HER2 | INSRR | IRAK3 | JAK1 | LCK | LIMK1 | LIMK2

COc1ccc(CNc2nc(N(CCO)CCO)nc3c2ncn3C(C)C)cc1 (2.5 µM)
0: FLT3 | FYN | GSK3A | HER2 | INSRR | IRAK3 | JAK1 | LCK | LIMK1 | LIMK2

Random excerpt: 2 entries already listed, in no set order.
Cc1nc(NC(=O)NCCc2nnn(CCF)n2)sc1-c1ccc(S(C)(=O)=O)c(F)c1 (10 µM)
0: FLT3 | FYN | GSK3A | HER2 | INSRR | IRAK3 | JAK1 | LCK | LIMK1 | LIMK2

O=C(O)c1ccccc1Nc1cccc(C(F)(F)F)c1 [Flufenamic acid] (10 µM)
0: FLT3 | FYN | GSK3A | HER2 | INSRR | IRAK3 | JAK1 | LCK | LIMK1 | LIMK2

Next part

CCC(C)(C)C(=O)N(O)Cc1ccccc1 (10 µM)
0: FLT3 | FYN | GSK3A | HER2 | INSRR | IRAK3 | JAK1 | LCK | LIMK1 | LIMK2

CN1C(=O)NC(Cc2c[nH]c3c(Cl)cccc23)C1=O (racemic) [Necrostatin 2 (racemate)] (10 µM)
0: FLT3 | FYN | GSK3A | HER2 | INSRR | IRAK3 | JAK1 | LCK | LIMK1 | LIMK2

COc1ccccc1/C=C1\C(=O)Nc2ccccc21 (10 µM)
0: FLT3 | FYN | GSK3A | HER2 | INSRR | IRAK3 | JAK1 | LCK | LIMK1 | LIMK2

CC(C)Oc1ccc(-c2cnc3c(-c4ccnc5ccccc45)cnn3c2)cc1 (10 µM)
0: FLT3 | FYN | GSK3A | HER2 | INSRR | IRAK3 | JAK1 | LCK | LIMK1 | LIMK2

O[C@H]1CC[C@H](Nc2ncc3nc(Nc4c(F)cc(F)cc4F)n([C@H]4CCOC4)c3n2)CC1 [Tanzisertib] (10 µM)
0: FLT3 | FYN | GSK3A | HER2 | INSRR | IRAK3 | JAK1 | LCK | LIMK1 | LIMK2

CC(=O)Nc1nc(C)c(-c2nc(N3CCCC(O)C3)no2)s1 (stereo not given) (10 µM)
0: FLT3 | FYN | GSK3A | HER2 | INSRR | IRAK3 | JAK1 | LCK | LIMK1 | LIMK2

CCc1c(C)sc(NC(=S)NC(=O)c2ccc(Cl)cc2)c1C(N)=O (10 µM)
0: FLT3 | FYN | GSK3A | HER2 | INSRR | IRAK3 | JAK1 | LCK | LIMK1 | LIMK2

Cn1cc(-c2cc3c(N4CCN(c5ncc([C@@](C)(N)c6ccc(F)cc6)cn5)CC4)ncnn3c2)cn1 [Avapritinib] (2.5 µM)
0: FLT3 | FYN | GSK3A | HER2 | INSRR | IRAK3 | JAK1 | LCK | LIMK2
4: LIMK1

CC1=C(CC(=O)O)c2cc(F)ccc2/C1=C\c1ccc(C(C)C)cc1 (10 µM)
0: FLT3 | FYN | GSK3A | HER2 | INSRR | IRAK3 | JAK1 | LCK | LIMK1 | LIMK2
